In patent publication US4760136A, “Chartreusin derivatives and salts thereof” (Ishihara Sangyo Kaisha, Ltd., priority 1984, dated 1988):
Some entries share one result that the patent states for a list of compounds.

These compounds were tested on ddY mice (assay: Acute toxicity, intravenous (once), ddY mice). Conditions: formulated per Preparation Example.
Assay type: in vivo
Source text: In Table 7 are shown acute toxicity values (LD50, mg/kg) in ddY mice in the case of intravenously administering (once) each of the compounds of this invention in the form of preparations shown in the Preparation Examples shown in Table 7.
`COC1C(O)C(C)OC(OC2C(Oc3cccc4c(OC(=O)CCNC(=O)C(F)(F)F)c5c(=O)oc6ccc(C)c7c(=O)oc(c34)c5c67)OC(C)C3OC(c4ccccc4)OC32)C1O` (stereo not drawn) [Compound No. 21] was tested, and the LD50 was ≥ 40 mg/kg. With `COC1C(O)C(C)OC(OC2C(Oc3cccc4c(OC(=O)CCNC(=O)OCc5ccccc5)c5c(=O)oc6ccc(C)c7c(=O)oc(c34)c5c67)OC(C)C3OC(c4ccccc4)OC32)C1O` (stereo not drawn) [compound 103] the LD50 was ≥ 80 mg/kg. For `COC1C(O)C(C)OC(OC2C(Oc3cccc4c(OC(=O)CCNC=O)c5c(=O)oc6ccc(C)c7c(=O)oc(c34)c5c67)OC(C)C3OC(c4ccccc4)OC32)C1O` (stereo not drawn) [Compound No. 45], the LD50 was ≥ 80 mg/kg. In the case of `COC1C(O)C(C)OC(OC2C(Oc3cccc4c(OC(=O)CNC(=O)OCc5ccccc5)c5c(=O)oc6ccc(C)c7c(=O)oc(c34)c5c67)OC(C)C3OC(c4ccccc4)OC32)C1O` (stereo not drawn) [compound 104], the LD50 is reported as ≥ 80 mg/kg. With `COC1C(O)C(C)OC(OC2C(Oc3cccc4c(OC(=O)C(C)CNC(=O)C(F)(F)F)c5c(=O)oc6ccc(C)c7c(=O)oc(c34)c5c67)OC(C)C3OC(c4ccccc4)OC32)C1O` (stereo not drawn) [Compound No. 44] the LD50 was ≥ 80 mg/kg. In the case of `COC1C(O)C(C)OC(OC2C(Oc3cccc4c(OC(=O)CCNC=O)c5c(=O)oc6ccc(C)c7c(=O)oc(c34)c5c67)OC(C)C3OC(c4ccccc4)OC32)C1O` (stereo not drawn) [Compound No. 20], the LD50 is reported as ≥ 40 mg/kg.
